According to paper PMC8927147, “Global profiling of regulatory elements in the histone benzoylation pathway” (Nature Communications, 2022):
These are yes or no findings as the source states them, for the method shown. Some results given as binding are weak or reduced against the parent protein; the word gives no strength.

Amino acid sequences for entries named in this document (tags omitted). Residues count along the entry.
UniProt Q03330, residues 67-317: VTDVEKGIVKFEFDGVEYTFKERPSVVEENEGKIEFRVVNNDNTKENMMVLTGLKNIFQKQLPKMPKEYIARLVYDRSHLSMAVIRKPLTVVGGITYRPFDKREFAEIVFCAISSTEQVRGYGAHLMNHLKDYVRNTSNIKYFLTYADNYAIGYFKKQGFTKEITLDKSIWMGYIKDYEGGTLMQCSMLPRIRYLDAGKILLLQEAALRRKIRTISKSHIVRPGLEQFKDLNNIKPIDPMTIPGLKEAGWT

Molecular target: Gcn5 (residues 67-317) (S. cerevisiae) (UniProt Q03330)
Test: co-purification (Ni-NTA, SEC); Ada2 (1-120) and Gcn5 (67-317) co-expressed in E. coli from pETDuet4; Ni-NTA, on-bead 3C digestion, size-exclusion chromatography

B1: Ada2 (residues 1-120) (domain or fragment, UniProt Q02336 1-120)
chain: MSNKFHCDVCSADCTNRVRVSCAICPEYDLCVPCFSQGSYTGKHRPYHDYRIIETNSYPILCPDWGADEELQLIKGAQTLGLGNWQDIADHIGSRGKEEVKEHYLKYYLESKYYPIPDIT
  binding: binds
